# According to paper PMC5862502, “Coordinated regulation of Arabidopsis microRNA biogenesis and red light signaling through Dicer-like 1 and phytochrome-interacting factor 4”:
# These are yes or no findings as the source states them, for the method shown. A result given as binding can be weak or reduced; the word gives no strength. Sequences can lack the tags named with a protein.
# Molecular target: two C-terminal DsRBDs of DCL1 (DCL1-RBD), yeast two-hybrid fusion (Arabidopsis)
# Assay: two-hybrid; directed; co-transformed yeast spotted on SC minus Trp and Leu, then grown on SC minus His, Trp and Leu with 5 mM 3-AT
row,binding,Binder
1,binds,"PIF4 fragment aa 123-431, yeast two-hybrid fusion (domain or fragment, UniProt Q8W2F3 123-430) PKACPDPPPQVMPPPKFRLTNSSSGIRETEMEQYSVTTVGPSHCGSNPSQNDLDVSMSHDRSKNIEEKLNPNASSSSGGSSGCSFGKDIKEMASGRCITTDRKRKRINHTDESVSLSDAIGNKSNQRSGSNRRSRAAEVHNLSERRRRDRINERMKALQELIPHCSKTDKASILDEAIDYLKSLQLQLQVMWMGSGMAAAAASAPMMFPGVQPQQFIRQIQSPVQLPRFPVMDQSAIQNNPGLVCQNPVQNQIISDRFARYIGGFPHMQAATQMQPMEMLRFSSPAGQQSQQPSSVPTKTTDGSRLDH"
2,binds,"PIF4 fragment aa 255-431, yeast two-hybrid fusion (domain or fragment, UniProt Q8W2F3 255-430) RSRAAEVHNLSERRRRDRINERMKALQELIPHCSKTDKASILDEAIDYLKSLQLQLQVMWMGSGMAAAAASAPMMFPGVQPQQFIRQIQSPVQLPRFPVMDQSAIQNNPGLVCQNPVQNQIISDRFARYIGGFPHMQAATQMQPMEMLRFSSPAGQQSQQPSSVPTKTTDGSRLDH"
3,binds,"PIF4 fragment aa 211-431, yeast two-hybrid fusion (domain or fragment, UniProt Q8W2F3 211-430) IKEMASGRCITTDRKRKRINHTDESVSLSDAIGNKSNQRSGSNRRSRAAEVHNLSERRRRDRINERMKALQELIPHCSKTDKASILDEAIDYLKSLQLQLQVMWMGSGMAAAAASAPMMFPGVQPQQFIRQIQSPVQLPRFPVMDQSAIQNNPGLVCQNPVQNQIISDRFARYIGGFPHMQAATQMQPMEMLRFSSPAGQQSQQPSSVPTKTTDGSRLDH"
